In PubChem BioAssay AID504834 (National Center for Advancing Translational Sciences (NCATS), 2011):
Screen size: about 320,000 compounds; about 22,000 (6.9%) were called active. Inconclusive results, whose numbers are uncertain, are shown with a selection of clear calls. The call rests on the fitted dose curve; in most records, active means well fitted inhibition curve with a large enough effect; inconclusive means small, poorly fitted or top-dose-only effect, or another doubt; inactive means no such curve, though single readings can be large or run the other way. Potencies beside an inconclusive call are fits to weak or partial responses and may not hold up.

Experiment: Primary qHTS for delayed death inhibitors of the malarial parasite plastid, 96 hour incubation
Details: P. falciparum luciferase reporter growth; series mostly up to 28.7 µM; activity change, negative = inhibition: at the top concentration
Procedure, shortened: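 P. falciparum expressing integrated firefly luciferase grown in erythrocytes (2% hematocrit, 0.05% parasitemia final) with compounds for 96 hours at 37 C, 5% CO2. Growth inhibition read as loss of luminescence after adding luciferase detection reagent.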
On the % scale 0 is the no-effect control and ±100 the full control effect; potency means the concentration at half of the fitted maximal effect.

Compound	Potency	activity change, negative = inhibition
O=C(CSC1=NNC(c2ccccn2)S1)Nc1ccc(C(F)(F)F)cc1 (configuration not stated)	inconclusive: 2.08 µM [inhibitor, full curve, poor fit]	
N#Cc1ccc(NCC(=O)Nc2ccc(S(=O)(=O)N3CCCCC3)cc2)cc1	inconclusive: 14.7 µM [inhibitor, partial curve, poor fit]	
COC(=O)CCC(=O)NNC(=O)C1CC1(c1ccccc1)c1ccccc1 (configuration not stated)	active: 10.4 µM	
Cc1ccc([C@@H]2[C@@H]3C(=O)N(C)C(=O)[C@@H]3[C@]3(C)C(=O)N(Cc4ccc(-c5ccccc5)cc4)CC(=O)N23)o1		inactive: 35%
O=C(/C=C/c1cccc([N+](=O)[O-])c1)Nc1ccc(Cl)cn1		inactive: 95.4%
Cc1ccc(-c2csc(Nc3ccccn3)n2)cc1	inconclusive: 16.5 µM [inhibitor, single point]	
Cc1nccn1-c1c([N+](=O)[O-])c(=O)n(C)c2ccccc12		inactive: -21.5%
CN1CCN(c2ccc(Cl)cc2NC(=O)c2ccc([N+](=O)[O-])cc2)CC1	inconclusive: 11.7 µM [inhibitor, single point]	
Cc1cccc(N2CCN(C(=O)c3ccc(Cl)c(S(=O)(=O)N4CCc5ccccc5C4)c3)CC2)c1C	inconclusive: 14.7 µM [inhibitor, partial curve]	
C/C(=N/OCO/N=C(\C)c1ccc(F)cc1F)c1ccc(F)cc1F		inactive: -19.6%
COc1ccc(-c2c(-c3cc(OC)cc(OC)c3)n(C)c3ccc(-c4ccc(OC)cc4F)cc23)cc1	inconclusive: 0.0928 µM [inhibitor, full curve, poor fit]	
CCN(Cc1nc2ccccc2c(=O)[nH]1)C(=O)c1cc(C2CC2)nn1-c1ccccc1	active: 9.28 µM	
CCOc1ccc(OCCC(=O)N(CC(=O)Nc2ccccc2C(F)(F)F)Cc2ccco2)cc1	inconclusive: 13.1 µM [inhibitor, partial curve, poor fit]	
CC(=O)N1CCCc2cc(S(=O)(=O)Nc3cccc(C)c3C)ccc21	inconclusive: 13.1 µM [inhibitor, partial curve]	
COc1ccc(S(=O)(=O)CCC(=O)N2CCN(c3cccc(Cl)c3)CC2)cc1	inconclusive: 0.657 µM [inhibitor, full curve]	
O=C(CSc1ncnc2c1oc1ccccc12)Nc1cccc(C(F)(F)F)c1	inconclusive: 18.5 µM [inhibitor, single point]	
COCCNC(=O)c1ccc2c(=O)n(Cc3ccco3)c(SCC(=O)Nc3ccc(OC)cc3OC)nc2c1	inconclusive: 13.1 µM [inhibitor, single point]	
Cc1noc(C)c1CSCC(=O)Nc1nnc(CC(C)C)s1		inactive: 0.193%
NC(=O)CC(NC(=O)c1ccccc1)c1ccc(NCCN2CCCCC2)c([N+](=O)[O-])c1 (configuration not stated)	inconclusive: 18.5 µM [inhibitor, single point]	
CS(=O)(=O)N(CC(=O)N1CCN(c2ccccc2)CC1)c1ccc(Cl)c(C(F)(F)F)c1	inconclusive: 18.5 µM [inhibitor, single point]	
CCN(CC)CCCn1c(SCC(=O)Nc2cccc(F)c2)nnc1-c1ccoc1C		inactive: -2.85%
CC1(C)CC(=O)C2=C(C1)OC(N)=C(C#N)C2c1ccccc1OC(=O)N1CCOCC1 (configuration not stated)	active: 5.86 µM	
O=C(CN(c1ccccc1Cl)S(=O)(=O)c1ccccc1)NCc1ccccc1	active: 11.7 µM	
CN(Cc1nc(Cc2cccc(F)c2)no1)CC1COCCO1 (configuration not stated)		inactive: 48.7%

Compound	Potency	activity change, negative = inhibition
COc1ccccc1C(=O)OCCN1CCOCC1		inactive: 17%
O=C(OCC(=O)N1CCCc2ccccc21)c1ccc(F)c(S(=O)(=O)N2CCOCC2)c1		inactive: -2.69%
O=C(CN1C(=O)NC2(CCCCCC2)C1=O)NCc1cccs1		inactive: 24.4%
CN(Cc1ccccc1)Cc1c(O)ccc2ccccc12	inconclusive: 1.17 µM [inhibitor, partial curve, poor fit]	
CSCCC(NC(=O)c1cccc(C)c1)C(=O)OCC(=O)NC(=O)c1cccn1C (configuration not stated)		inactive: 19.6%
O=C(CSc1nc2ccc(Nc3nc(N4CCCC4)nc(N4CCCC4)n3)cc2s1)NCc1ccco1	inconclusive: 11.7 µM [inhibitor, single point]	
O=C(CCc1ccc(O)cc1)c1c(O)cc(O)cc1O	inconclusive: 16.5 µM [inhibitor, single point]	
CN(c1ccc(C(=O)Nc2ccc(CC#N)cc2)cc1)S(C)(=O)=O		inactive: 70%
COc1ccc(NC(=O)C(C)SCc2ccccc2)cc1OC (configuration not stated)		inactive: 46.7%
O=C(Nc1ccccc1F)c1ccc(-c2cccc([N+](=O)[O-])c2)o1	inconclusive: 1.85 µM [inhibitor, partial curve, poor fit]	
COC(=O)c1ccc(S(=O)(=O)N2CCCN(Cc3ccccc3)CC2)n1C		inactive: 23%
O=C(N=Nc1c(O)[nH]c2ccccc12)c1ccco1	inconclusive: 1.65 µM [inhibitor, full curve, poor fit]	
Cc1nn(Cc2c(F)cccc2Cl)c(C)c1NC(=O)C1CC1		inactive: -0.406%
COc1ccc(N=Cc2c(O)n(-c3cccc(C)n3)c(=O)c3ccccc23)cc1		inactive: -18.3%
CCOC(=O)C1CCN(C(=O)C2CCCN(S(=O)(=O)c3ccc(OC)c(Cl)c3)C2)CC1 (configuration not stated)	inconclusive: 14.7 µM [inhibitor, partial curve]	
CCOCC(=O)Nc1cccc(NC(C)=O)c1	inconclusive: 18.5 µM [inhibitor, single point]	
COc1ccc(CNC(=O)c2ccccc2NS(C)(=O)=O)cc1	inconclusive: 18.5 µM [inhibitor, partial curve, poor fit]	
Cc1c(C(=O)NCCCN2CCOCC2)sc2nc(-c3ccc(F)cc3)cn12	inconclusive: 4.15 µM [inhibitor, single point]	
Cc1cc(C)n(-c2nc(SCC(=O)O)c3c4c(sc3n2)CCCC4)n1	inconclusive: 8.28 µM [inhibitor, partial curve, poor fit]	
Nc1ccc(N=Nc2ccccc2)c2cccnc12		inactive: 14.4%
Cc1[nH]c2ccccc2c1C(C[N+](=O)[O-])c1cccc(O)c1 (configuration not stated)	inconclusive: 0.0029 µM [inhibitor, full curve, poor fit]	
COC(=O)c1cc(=O)n(-c2ccc(C(F)(F)F)cc2)[nH]1		inactive: -5.09%
O=C(CCC(=O)Nc1ccccc1)NNC(=O)C(c1ccccc1)c1ccccc1		inactive: 79.7%
O=C(Nc1ccc(N=Nc2ccccc2)c(NC(=O)C2CCCO2)c1)C1CCCO1 (configuration not stated)	inconclusive: 18.5 µM [inhibitor, single point]	

Of the compounds above, six have a nitro group on carbon.
Compound	Potency	activity change, negative = inhibition
O=C(/C=C/c1cccc([N+](=O)[O-])c1)Nc1ccc(Cl)cn1		inactive: 95.4%
Cc1nccn1-c1c([N+](=O)[O-])c(=O)n(C)c2ccccc12		inactive: -21.5%
CN1CCN(c2ccc(Cl)cc2NC(=O)c2ccc([N+](=O)[O-])cc2)CC1	inconclusive: 11.7 µM [inhibitor, single point]	
NC(=O)CC(NC(=O)c1ccccc1)c1ccc(NCCN2CCCCC2)c([N+](=O)[O-])c1 (configuration not stated)	inconclusive: 18.5 µM [inhibitor, single point]	
O=C(Nc1ccccc1F)c1ccc(-c2cccc([N+](=O)[O-])c2)o1	inconclusive: 1.85 µM [inhibitor, partial curve, poor fit]	
Cc1[nH]c2ccccc2c1C(C[N+](=O)[O-])c1cccc(O)c1 (configuration not stated)	inconclusive: 0.0029 µM [inhibitor, full curve, poor fit]	

Next part.

Compound	Potency	activity change, negative = inhibition
COc1ccc(-c2cc3c(=O)n(CC(=O)NCCCN4CCC(N5CCCCC5)CC4)ncn3n2)cc1	inconclusive: 9.28 µM [inhibitor, partial curve]	
CN(C(=O)COC(=O)c1cc(=O)[nH]c2ccccc12)c1c(N)n(Cc2ccccc2)c(=O)[nH]c1=O		inactive: 23.1%
CCOC(=O)C1=C(C)N=c2s/c(=C\c3ccc(OCC(=O)O)cc3)c(=O)n2C1c1ccc(Cl)cc1 (configuration not stated)	active: 1.47 µM	
Cc1nc2cc(NS(=O)(=O)c3ccccc3)ccc2n1C	inconclusive: 3.7 µM [inhibitor, partial curve, poor fit]	
O=c1c(Cl)c(Nc2cccc(Cl)c2)cnn1-c1nc2ccccc2s1		inactive: 69.1%
O=C(OCc1nnc(-c2ccccc2)o1)c1cccc(-n2cnnn2)c1		inactive: 40.2%
N/C(=N\OC(=O)c1cccs1)c1ccccc1	inconclusive: 10.4 µM [inhibitor, single point]	
CCOc1ccc(CNCCCSc2ncccn2)cc1	active: 10.4 µM	
Cc1nc2c3ccccc3nc(NNC(=O)CCC(=O)NCCN3CCN(c4ccccc4F)CC3)n2n1	inconclusive: 5.22 µM [inhibitor, partial curve, poor fit]	
CCCc1nc2oc3c(NCCOCCO)ncnc3c2c2c1COC(C)(C)C2	active: 3.7 µM	
Cc1cccc(OCC(=O)Nc2cc(C)ccc2O)c1	inconclusive: 0.131 µM [inhibitor, full curve, poor fit]	
Cc1ccc(N(Cc2ccccc2)C(=O)c2ccc(S(=O)(=O)N3CCOCC3)cc2)cc1	inconclusive: 11.7 µM [inhibitor, partial curve]	
Cc1c(OC(C)C(=O)NC(Cc2c[nH]c3ccc(O)cc23)C(=O)O)ccc2c1oc(=O)c1ccccc12 (configuration not stated)	inconclusive: 18.5 µM [inhibitor, single point]	
CCn1c(SCC(=O)Nc2c(C)n(C)n(-c3ccccc3)c2=O)nc2c1c(=O)n(C)c(=O)n2C		inactive: 13.6%
O=C1C(Cc2ccccc2)NC(=S)N1Cc1ccccc1 (configuration not stated)		inactive: -25.5%
CCOC(C)=O		inactive: -18.8%
Cc1ccc(S(=O)(=O)N2CCN=C2SCc2ccc(Cl)c(Cl)c2)cc1		inactive: 10.7%
COc1ccc(-n2c(SC(C)C(=O)Nc3ccc(NC(C)=O)cc3)nc3ccccc3c2=O)cc1OC (configuration not stated)	inconclusive: 5.22 µM [inhibitor, partial curve, poor fit]	
CC1=C(C(=O)OCc2ccc3c(c2)OCO3)C(c2ccc(O)c([N+](=O)[O-])c2)NC(=O)N1 (configuration not stated)		inactive: 67.8%
O=C(COc1ccc(Cl)cc1Cl)Nc1cccnc1		inactive: 20.5%
O=C(NCCc1cccc(Cl)c1)c1cc2ccccc2oc1=O	inconclusive: 0.165 µM [inhibitor, partial curve, poor fit]	
COC(=O)c1ccc(OCCOCCOc2cccc3ccc(C)nc23)cc1	inconclusive: 10.4 µM [inhibitor, partial curve, poor fit]	
OCCN(CCO)CC(O)Cn1c2ccccc2c2ccccc21 (configuration not stated)	inconclusive: 10.4 µM [inhibitor, single point]	
COc1ccc(OC)c(S(=O)(=O)N(C(C)=O)c2ccc3oc(=O)sc3c2)c1	inconclusive: 11.7 µM [inhibitor, partial curve, poor fit]	
